Assay results from PMC13530250.
Results are given in words; binding and its absence hold for the method and conditions named. In cells and extracts the contact can be indirect. Some entries that bind do so weakly or less than the wild type. Where a sequence is shown, tags or fusion partners need not be part of it.

The chains behind the UniProt entries cited, without tags or fusion partners. Residues count along the entry.
UniProt Q02817, residues 21-5289: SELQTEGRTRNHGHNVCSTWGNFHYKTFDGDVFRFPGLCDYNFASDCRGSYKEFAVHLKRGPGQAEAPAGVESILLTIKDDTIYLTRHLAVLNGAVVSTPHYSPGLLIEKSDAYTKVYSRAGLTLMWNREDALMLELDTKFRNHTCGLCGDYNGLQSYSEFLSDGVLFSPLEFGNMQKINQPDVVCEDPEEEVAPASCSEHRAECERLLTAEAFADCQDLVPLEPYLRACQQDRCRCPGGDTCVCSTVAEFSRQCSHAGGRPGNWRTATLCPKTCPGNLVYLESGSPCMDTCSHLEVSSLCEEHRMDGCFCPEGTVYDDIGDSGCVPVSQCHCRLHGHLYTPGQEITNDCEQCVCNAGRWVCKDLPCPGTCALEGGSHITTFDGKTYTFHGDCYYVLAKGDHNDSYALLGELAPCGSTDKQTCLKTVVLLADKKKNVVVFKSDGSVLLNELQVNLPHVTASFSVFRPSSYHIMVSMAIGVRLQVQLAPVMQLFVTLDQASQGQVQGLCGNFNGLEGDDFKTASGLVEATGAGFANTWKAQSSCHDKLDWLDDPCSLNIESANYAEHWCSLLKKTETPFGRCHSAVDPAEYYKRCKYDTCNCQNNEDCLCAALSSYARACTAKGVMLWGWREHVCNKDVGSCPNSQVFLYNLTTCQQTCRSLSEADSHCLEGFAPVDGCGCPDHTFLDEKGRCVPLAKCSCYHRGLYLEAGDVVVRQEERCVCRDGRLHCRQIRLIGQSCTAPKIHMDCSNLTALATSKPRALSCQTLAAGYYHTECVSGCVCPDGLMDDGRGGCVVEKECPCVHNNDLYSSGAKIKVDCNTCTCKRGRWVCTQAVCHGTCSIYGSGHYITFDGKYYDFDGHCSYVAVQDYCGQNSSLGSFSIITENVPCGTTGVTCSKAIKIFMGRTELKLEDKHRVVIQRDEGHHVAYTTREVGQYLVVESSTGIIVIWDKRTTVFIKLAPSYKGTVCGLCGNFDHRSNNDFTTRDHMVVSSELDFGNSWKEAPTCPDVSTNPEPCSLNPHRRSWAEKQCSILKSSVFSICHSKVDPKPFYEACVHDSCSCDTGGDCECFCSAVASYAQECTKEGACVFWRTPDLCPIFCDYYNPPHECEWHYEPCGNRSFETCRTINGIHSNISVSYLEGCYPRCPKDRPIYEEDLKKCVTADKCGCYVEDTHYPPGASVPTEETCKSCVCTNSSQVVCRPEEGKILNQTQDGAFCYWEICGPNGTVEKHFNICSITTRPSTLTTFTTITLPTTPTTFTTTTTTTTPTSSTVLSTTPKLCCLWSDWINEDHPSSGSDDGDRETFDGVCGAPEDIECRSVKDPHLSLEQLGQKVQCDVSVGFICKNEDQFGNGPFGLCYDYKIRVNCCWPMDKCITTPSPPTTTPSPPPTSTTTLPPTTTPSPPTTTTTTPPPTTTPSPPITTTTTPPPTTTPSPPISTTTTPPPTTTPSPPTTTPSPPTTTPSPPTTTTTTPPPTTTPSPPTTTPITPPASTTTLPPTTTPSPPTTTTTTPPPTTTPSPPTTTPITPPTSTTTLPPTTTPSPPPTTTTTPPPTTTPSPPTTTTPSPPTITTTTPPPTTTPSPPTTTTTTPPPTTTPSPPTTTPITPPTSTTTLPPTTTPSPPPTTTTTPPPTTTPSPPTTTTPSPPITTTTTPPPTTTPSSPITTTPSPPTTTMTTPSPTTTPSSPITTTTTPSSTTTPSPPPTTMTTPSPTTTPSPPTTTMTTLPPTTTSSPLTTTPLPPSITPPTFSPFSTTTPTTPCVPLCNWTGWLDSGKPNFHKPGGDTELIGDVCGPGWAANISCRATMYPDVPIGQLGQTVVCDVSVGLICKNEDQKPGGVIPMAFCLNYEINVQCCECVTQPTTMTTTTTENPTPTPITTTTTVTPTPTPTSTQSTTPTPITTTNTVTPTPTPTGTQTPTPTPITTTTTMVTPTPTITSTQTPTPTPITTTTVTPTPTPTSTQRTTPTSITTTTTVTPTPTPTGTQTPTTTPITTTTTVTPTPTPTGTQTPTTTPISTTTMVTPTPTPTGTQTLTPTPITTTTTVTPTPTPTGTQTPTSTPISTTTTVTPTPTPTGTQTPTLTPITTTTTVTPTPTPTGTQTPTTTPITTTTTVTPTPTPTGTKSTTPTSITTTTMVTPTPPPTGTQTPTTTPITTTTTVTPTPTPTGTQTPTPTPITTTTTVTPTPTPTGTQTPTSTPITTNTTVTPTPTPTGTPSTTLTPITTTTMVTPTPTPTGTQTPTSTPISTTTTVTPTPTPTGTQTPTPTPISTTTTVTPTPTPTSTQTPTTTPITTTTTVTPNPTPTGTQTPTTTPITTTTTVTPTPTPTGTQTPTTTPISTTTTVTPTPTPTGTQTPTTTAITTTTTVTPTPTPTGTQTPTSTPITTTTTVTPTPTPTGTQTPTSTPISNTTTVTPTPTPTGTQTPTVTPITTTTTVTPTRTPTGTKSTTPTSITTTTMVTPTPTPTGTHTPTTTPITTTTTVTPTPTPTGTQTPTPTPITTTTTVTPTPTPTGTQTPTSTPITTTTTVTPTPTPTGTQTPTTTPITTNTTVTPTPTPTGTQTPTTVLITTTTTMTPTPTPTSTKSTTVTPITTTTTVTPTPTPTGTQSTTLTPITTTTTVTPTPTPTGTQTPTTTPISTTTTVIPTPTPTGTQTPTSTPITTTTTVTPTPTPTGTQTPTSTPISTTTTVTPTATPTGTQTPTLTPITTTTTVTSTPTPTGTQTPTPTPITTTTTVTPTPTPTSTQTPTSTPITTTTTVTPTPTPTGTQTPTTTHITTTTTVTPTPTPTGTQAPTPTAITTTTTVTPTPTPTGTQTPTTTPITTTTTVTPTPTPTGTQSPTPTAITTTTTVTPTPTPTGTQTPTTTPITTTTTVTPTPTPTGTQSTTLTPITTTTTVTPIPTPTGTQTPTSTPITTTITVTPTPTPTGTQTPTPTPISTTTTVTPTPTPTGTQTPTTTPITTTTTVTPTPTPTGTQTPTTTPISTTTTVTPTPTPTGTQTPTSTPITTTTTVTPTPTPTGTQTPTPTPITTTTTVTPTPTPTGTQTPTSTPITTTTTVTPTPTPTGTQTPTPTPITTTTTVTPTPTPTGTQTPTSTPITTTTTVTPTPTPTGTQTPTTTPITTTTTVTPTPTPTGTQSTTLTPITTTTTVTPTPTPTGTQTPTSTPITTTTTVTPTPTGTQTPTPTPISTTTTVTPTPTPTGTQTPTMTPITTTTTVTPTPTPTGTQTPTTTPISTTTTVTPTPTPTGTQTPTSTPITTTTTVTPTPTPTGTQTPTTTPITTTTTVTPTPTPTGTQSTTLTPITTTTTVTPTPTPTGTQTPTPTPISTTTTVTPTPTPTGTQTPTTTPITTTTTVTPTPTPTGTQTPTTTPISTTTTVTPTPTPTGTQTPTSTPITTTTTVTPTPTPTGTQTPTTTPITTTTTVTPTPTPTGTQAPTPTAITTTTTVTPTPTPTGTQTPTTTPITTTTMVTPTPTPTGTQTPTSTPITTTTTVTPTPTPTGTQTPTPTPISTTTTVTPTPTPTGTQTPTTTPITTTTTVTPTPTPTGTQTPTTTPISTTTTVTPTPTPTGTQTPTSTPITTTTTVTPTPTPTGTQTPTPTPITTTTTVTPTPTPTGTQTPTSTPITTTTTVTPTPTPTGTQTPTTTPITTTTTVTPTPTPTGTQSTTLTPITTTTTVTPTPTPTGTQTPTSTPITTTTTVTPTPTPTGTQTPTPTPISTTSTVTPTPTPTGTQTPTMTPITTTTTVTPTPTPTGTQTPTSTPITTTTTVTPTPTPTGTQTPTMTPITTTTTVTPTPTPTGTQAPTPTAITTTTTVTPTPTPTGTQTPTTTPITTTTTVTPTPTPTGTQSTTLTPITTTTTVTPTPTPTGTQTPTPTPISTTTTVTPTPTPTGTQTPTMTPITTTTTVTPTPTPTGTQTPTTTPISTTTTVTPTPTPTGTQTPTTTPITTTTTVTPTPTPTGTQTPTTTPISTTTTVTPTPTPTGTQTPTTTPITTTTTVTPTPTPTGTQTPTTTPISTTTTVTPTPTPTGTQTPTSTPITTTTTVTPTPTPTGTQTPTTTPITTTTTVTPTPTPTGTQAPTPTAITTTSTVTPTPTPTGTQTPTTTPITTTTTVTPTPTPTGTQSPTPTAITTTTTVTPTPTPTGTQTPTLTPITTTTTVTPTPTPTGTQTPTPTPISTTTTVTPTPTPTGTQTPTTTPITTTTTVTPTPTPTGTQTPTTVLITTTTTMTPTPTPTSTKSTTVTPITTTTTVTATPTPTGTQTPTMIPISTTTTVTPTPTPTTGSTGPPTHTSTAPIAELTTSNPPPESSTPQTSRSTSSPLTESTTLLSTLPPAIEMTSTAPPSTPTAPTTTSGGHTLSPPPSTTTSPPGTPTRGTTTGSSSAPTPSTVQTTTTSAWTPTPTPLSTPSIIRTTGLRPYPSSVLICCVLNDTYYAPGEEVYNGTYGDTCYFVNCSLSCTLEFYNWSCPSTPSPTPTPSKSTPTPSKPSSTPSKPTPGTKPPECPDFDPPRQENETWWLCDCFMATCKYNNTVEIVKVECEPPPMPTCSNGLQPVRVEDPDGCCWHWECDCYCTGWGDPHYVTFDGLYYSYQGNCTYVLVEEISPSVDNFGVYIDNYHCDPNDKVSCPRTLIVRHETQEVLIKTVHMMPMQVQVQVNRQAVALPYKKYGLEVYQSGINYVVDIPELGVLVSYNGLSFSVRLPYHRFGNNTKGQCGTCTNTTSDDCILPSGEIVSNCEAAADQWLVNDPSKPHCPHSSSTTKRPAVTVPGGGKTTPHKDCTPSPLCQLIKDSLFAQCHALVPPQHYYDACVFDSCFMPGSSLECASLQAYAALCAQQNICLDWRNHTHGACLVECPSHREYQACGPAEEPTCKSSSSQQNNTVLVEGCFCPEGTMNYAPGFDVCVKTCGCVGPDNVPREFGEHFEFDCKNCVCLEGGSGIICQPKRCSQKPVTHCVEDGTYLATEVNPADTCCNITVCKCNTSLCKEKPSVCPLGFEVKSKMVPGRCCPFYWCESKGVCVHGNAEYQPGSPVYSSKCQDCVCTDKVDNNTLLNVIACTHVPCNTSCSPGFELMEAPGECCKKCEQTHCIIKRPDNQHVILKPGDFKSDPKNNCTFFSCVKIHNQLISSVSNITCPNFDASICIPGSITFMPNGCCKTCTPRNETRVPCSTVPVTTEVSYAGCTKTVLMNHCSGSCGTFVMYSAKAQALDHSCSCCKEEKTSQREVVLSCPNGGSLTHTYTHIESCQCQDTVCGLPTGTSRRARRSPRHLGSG

Molecular target: T1, B3GNT6-Flag (UniProt Q6ZMB0)
T1 sequence: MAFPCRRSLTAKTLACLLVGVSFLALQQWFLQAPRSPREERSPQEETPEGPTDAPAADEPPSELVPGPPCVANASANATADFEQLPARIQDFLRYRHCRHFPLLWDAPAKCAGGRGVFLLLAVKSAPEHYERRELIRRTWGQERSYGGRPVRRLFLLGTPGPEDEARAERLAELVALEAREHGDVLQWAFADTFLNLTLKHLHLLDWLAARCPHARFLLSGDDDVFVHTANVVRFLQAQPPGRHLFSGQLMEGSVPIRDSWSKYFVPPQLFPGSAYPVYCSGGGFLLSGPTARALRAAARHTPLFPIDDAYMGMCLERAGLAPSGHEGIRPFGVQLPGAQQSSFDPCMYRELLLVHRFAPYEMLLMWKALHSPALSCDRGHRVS
Assay: co-IP; LOVO cells transfected with pcDNA3.1-B3GNT6-Flag; lysates incubated with anti-Flag magnetic beads or specific antibodies on Protein A/G magnetic beads; IgG control; Western blot

Substance: MUC2 (from UniProt Q02817 21-5289)
- binding: binds
